Results from article PMC7979793.
Results are given in words; binding and its absence hold for the method and conditions named. In cells and extracts the contact can be indirect. Some results given as binding are weak or reduced against the parent protein; the word gives no strength. For part of these data: Sequences can lack the tags named with a protein. Each block holds one molecule with its values, some of them ahead of it.

Chains of the proteins cited; added tags and fusions are not shown. Residues count along the entry.
UniProt P34931: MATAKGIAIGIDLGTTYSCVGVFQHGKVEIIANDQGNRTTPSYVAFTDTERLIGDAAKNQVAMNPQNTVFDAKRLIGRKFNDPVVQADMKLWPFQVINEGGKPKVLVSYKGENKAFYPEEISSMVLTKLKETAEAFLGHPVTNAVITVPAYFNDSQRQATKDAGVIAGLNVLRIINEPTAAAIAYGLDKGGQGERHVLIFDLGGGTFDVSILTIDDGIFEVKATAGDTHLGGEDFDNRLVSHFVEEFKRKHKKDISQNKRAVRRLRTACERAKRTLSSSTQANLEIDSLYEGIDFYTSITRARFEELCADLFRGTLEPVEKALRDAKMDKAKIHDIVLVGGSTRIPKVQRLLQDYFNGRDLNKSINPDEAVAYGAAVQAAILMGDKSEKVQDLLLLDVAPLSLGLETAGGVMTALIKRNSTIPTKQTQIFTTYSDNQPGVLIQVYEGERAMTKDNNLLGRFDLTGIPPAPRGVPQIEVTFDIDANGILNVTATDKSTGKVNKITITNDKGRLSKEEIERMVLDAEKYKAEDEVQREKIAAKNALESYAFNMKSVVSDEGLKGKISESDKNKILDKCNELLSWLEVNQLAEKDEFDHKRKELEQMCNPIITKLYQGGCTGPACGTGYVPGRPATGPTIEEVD
UniProt P11021, residues 19-654: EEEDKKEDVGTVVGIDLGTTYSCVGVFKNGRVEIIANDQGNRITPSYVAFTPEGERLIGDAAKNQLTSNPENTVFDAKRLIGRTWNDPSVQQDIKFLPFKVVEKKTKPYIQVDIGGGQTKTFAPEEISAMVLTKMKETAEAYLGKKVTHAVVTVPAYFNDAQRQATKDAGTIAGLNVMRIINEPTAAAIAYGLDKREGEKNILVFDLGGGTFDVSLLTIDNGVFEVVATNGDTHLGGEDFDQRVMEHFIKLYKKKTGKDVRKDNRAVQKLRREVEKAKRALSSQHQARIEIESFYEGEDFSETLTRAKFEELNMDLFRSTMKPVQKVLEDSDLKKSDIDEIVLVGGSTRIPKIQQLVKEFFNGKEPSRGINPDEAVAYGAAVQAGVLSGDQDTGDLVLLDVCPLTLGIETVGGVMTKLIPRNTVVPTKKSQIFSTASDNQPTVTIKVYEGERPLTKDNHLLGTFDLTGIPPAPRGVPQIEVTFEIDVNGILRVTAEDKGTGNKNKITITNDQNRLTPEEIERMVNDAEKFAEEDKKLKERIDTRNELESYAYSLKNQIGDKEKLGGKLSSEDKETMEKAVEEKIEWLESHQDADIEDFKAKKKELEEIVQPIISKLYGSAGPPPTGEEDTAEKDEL
UniProt P16627: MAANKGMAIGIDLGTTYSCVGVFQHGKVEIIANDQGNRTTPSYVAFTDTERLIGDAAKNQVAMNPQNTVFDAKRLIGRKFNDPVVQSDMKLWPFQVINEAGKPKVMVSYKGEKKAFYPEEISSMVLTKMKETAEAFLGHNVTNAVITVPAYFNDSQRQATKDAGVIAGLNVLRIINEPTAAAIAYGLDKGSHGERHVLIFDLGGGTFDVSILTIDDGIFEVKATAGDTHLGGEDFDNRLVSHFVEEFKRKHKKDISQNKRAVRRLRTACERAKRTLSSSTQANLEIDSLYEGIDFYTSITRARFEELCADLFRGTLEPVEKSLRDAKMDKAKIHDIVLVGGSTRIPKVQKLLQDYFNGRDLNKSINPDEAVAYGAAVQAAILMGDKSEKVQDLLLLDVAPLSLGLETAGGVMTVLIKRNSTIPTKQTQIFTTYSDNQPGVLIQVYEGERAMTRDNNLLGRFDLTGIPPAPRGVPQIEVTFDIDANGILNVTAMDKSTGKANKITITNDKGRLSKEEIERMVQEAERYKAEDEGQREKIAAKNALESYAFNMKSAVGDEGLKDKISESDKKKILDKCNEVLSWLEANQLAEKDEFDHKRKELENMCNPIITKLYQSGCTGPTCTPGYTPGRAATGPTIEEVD

How the values were obtained:
[1] = target: T1, 3xFLAG-Vaspin (visceral adipose tissue-derived serine protease inhibitor, SERPINA12), expressed in HK2 cells (human) (UniProt Q8IW75); experiment: co-IP; HK2 cells expressing p3xFLAG-Vaspin, treated with 1 ug/ml tunicamycin or 1 uM thapsigargin; lysate precipitated with ANTI-FLAG M2 affinity agarose gel, blot for GRP78
T1 sequence: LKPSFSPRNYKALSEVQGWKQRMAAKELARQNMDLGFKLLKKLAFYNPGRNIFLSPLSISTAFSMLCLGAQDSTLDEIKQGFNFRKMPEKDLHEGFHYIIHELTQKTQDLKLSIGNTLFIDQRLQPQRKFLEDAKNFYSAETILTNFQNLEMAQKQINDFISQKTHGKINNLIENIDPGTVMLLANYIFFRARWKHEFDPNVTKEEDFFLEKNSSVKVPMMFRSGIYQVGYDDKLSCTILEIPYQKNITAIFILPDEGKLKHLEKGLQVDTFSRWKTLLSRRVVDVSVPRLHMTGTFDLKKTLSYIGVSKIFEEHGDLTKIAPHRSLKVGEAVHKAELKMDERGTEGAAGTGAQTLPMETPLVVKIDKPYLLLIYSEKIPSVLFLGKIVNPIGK

[2] = target: T2, 3xFLAG-Vaspin (visceral adipose tissue-derived serine protease inhibitor, SERPINA12), expressed in HEK293T cells (human) (UniProt Q8IW75); experiment: co-IP; HEK293T cells expressing p3xFLAG-Vaspin (alone or with pGFP-GRP78 or pGFP-HSPA1L); lysates precleared with sepharose 4B, precipitated with ANTI-FLAG M2 affinity agarose gel, Western blot
T2 sequence: T1 sequence

[3] = target: T3, recombinant human vaspin protein (human) (UniProt Q8IW75); experiment: co-IP; kidney lysates of mice injected with rhVaspin, immunoprecipitated with vaspin antibody, SDS-PAGE, detection with HSPA1L antibody; only the target purified
T3 sequence: T1 sequence

[4] = target: 3xFLAG-GFP-HSPA1L, expressed in HK2 cells (UniProt P34931); experiment: co-IP; HK2 cells expressing p3xFLAG-GFP-HSPA1L cultured with rhVaspin; lysates precipitated with ANTI-FLAG M2 affinity agarose gel, blot with anti-Vaspin antibody; only the binder purified

Molecule: 78 kDa glucose-regulated protein (GRP78), endogenous in HK2 cells (from UniProt P11021 19-654)
- binding [1]: binds

Molecule: HSPA1L, endogenous in mouse kidney (from UniProt P16627 1-641)
- binding [3]: binds

Results, then the molecule that gave them:

- binding [2]: binds
Molecule: heat shock protein family A (Hsp70) member 1 like (HSPA1L), endogenous in HEK293T cells (from UniProt P34931 1-641)

- binding [2]: binds
Molecule: GFP-GRP78 (19-654), expressed in HEK293T cells (from UniProt P11021 19-654)

- binding [2]: binds
Molecule: GFP-HSPA1L, expressed in HEK293T cells (from UniProt P34931 1-641)

- binding [4]: binds
B1: recombinant human vaspin protein (protein, UniProt Q8IW75 21-414)
chain: T1 sequence
